Laboratory results published in PMC4624954, “Delineating the Tes Interaction Site in Zyxin and Studying Cellular Effects of Its Disruption” (PLoS ONE, 2015).
Positions count from the first letter of the chain named. These are yes or no findings as the source states them, for the method shown. Binding calls can cover weak binding; strength is not graded here.

Experiments:
[1] = biological target: T1, Zyx FL MT-mito (human) (UniProt Q15942); test: ectopic recruitment to mitochondria; zyxin-null fibroblasts transfected with Zyx FL WT-mito or Zyx FL MT-mito; endogenous VASP and α-actinin stained with antibodies
T1 sequence: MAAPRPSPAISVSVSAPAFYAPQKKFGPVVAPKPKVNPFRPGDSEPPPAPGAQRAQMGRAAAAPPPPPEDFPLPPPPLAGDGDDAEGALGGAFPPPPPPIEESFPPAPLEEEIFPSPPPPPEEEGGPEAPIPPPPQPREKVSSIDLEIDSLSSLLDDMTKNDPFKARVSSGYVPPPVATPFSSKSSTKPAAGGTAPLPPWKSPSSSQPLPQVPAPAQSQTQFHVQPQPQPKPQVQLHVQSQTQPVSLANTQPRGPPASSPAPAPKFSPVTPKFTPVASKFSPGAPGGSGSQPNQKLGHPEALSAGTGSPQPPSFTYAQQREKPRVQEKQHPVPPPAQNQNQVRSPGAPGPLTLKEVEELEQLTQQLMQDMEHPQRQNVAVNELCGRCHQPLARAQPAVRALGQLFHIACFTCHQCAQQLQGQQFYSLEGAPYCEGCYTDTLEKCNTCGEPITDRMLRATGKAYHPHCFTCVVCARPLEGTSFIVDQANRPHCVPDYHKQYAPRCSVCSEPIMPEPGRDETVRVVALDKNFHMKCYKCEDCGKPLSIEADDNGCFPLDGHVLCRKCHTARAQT

[2] = biological target: T2, Zyx FL WT-mito (human) (UniProt Q15942); test: as above
T2 sequence: T1 sequence with A60V, A61G, A62E, A63I

For α-actinin, the binding [1] was “binds” and the binding [2] was “binds”.
